From the supplement of paper PMC12819154, “High-throughput peptide-centric local stability assay extends protein–ligand identification to membrane proteins, tissues and bacteria” (Nature Structural & Molecular Biology, 2025)
The list shows a part of the results. Small differences around the control level are noise.

By UniProt entry, the sequences of proteins in these tests, tags left out. Where a name states a change or a piece, a line headed by the entry shows the natural chain unless it says otherwise.
UniProt Q3TGF2: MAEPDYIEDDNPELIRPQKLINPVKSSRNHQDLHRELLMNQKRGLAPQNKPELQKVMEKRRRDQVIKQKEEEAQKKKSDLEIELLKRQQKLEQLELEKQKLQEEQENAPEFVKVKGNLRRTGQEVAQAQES
UniProt Q02780, whole entry: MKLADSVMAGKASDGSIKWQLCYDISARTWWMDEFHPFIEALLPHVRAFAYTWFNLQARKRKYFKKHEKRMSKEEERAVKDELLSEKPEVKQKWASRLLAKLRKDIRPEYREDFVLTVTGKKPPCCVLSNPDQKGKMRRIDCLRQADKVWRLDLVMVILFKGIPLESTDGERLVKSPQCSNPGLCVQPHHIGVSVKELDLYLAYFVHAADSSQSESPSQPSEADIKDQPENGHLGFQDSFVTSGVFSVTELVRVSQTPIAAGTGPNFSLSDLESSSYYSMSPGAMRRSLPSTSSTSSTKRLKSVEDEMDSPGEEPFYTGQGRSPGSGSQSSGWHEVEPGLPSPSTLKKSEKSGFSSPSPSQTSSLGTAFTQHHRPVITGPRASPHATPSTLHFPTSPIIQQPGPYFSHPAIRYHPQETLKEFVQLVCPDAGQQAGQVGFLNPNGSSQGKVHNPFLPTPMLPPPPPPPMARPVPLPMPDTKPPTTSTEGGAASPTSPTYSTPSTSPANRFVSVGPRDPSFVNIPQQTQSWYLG
UniProt Q3TCV3: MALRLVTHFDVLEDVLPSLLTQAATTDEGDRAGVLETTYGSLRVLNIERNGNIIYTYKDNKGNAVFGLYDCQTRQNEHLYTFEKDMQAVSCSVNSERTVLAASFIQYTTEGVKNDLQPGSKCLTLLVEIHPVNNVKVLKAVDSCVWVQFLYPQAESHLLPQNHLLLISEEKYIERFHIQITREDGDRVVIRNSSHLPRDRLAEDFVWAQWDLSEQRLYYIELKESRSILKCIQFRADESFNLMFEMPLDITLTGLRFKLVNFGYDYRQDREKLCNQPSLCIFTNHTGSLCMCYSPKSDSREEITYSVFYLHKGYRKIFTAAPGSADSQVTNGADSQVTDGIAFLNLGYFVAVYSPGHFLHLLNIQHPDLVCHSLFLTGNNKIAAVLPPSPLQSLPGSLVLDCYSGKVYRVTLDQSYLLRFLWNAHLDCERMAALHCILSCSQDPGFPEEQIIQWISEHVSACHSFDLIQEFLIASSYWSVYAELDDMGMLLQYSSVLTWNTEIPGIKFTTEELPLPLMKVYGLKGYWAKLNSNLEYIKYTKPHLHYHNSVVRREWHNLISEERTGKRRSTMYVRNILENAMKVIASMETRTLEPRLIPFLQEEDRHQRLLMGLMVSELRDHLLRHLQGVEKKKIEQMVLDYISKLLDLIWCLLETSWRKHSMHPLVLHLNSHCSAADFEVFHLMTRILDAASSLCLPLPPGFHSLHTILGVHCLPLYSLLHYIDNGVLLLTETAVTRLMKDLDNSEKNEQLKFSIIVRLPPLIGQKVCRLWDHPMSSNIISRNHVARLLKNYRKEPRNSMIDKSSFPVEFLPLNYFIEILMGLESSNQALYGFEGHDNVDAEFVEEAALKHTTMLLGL
UniProt Q06138: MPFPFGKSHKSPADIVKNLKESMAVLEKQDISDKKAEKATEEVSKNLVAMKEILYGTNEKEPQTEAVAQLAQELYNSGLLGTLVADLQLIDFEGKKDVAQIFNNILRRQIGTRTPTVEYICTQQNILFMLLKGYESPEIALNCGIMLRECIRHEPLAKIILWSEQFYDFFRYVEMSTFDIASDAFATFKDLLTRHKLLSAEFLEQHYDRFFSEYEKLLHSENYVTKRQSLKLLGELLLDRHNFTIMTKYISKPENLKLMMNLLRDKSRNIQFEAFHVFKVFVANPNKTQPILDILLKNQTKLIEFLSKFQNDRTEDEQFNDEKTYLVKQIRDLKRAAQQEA
UniProt Q11011: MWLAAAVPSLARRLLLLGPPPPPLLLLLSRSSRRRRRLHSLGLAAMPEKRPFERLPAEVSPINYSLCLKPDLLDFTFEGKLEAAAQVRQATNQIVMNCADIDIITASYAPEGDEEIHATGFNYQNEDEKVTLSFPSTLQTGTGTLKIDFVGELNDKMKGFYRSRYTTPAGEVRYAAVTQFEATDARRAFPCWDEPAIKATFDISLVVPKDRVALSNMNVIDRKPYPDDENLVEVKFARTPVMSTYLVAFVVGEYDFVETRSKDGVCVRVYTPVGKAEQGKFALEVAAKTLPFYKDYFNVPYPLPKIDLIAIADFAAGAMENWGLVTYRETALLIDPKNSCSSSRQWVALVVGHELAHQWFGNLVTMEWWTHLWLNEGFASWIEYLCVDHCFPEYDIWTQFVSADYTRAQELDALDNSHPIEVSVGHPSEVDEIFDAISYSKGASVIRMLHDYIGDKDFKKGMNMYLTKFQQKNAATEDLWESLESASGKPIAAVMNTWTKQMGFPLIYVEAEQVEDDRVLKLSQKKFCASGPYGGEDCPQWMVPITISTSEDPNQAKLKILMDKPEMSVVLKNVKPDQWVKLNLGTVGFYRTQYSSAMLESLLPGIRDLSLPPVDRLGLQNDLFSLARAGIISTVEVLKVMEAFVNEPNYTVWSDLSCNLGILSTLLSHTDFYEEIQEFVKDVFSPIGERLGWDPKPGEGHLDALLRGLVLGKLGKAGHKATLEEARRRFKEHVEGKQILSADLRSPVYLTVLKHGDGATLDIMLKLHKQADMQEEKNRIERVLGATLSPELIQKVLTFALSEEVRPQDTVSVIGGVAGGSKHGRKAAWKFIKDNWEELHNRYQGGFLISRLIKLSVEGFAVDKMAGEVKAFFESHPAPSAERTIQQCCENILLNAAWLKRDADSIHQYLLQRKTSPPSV
UniProt Q02819: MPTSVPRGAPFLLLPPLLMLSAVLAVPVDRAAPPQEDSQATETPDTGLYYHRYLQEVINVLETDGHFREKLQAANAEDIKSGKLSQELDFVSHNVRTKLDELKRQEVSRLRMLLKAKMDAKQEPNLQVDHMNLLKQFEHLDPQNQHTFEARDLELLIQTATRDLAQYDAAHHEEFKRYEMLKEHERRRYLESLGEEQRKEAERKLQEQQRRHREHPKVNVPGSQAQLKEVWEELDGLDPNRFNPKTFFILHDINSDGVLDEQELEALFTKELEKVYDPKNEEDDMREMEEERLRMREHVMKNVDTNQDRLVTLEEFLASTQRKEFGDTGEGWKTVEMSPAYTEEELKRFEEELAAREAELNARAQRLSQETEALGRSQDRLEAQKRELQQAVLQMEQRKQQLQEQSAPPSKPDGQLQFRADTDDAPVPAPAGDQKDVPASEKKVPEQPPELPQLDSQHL
UniProt Q3TL26: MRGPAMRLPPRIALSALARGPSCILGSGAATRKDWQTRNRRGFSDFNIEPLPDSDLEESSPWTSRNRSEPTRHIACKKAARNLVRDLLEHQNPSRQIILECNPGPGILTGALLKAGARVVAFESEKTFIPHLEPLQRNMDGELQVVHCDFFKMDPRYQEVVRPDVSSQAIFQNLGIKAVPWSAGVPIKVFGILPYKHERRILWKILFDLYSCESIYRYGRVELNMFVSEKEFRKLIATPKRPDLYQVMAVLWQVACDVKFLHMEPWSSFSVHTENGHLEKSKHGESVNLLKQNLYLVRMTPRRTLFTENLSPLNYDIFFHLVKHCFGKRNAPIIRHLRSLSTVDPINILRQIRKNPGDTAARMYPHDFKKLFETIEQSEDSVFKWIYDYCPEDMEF
UniProt Q05920: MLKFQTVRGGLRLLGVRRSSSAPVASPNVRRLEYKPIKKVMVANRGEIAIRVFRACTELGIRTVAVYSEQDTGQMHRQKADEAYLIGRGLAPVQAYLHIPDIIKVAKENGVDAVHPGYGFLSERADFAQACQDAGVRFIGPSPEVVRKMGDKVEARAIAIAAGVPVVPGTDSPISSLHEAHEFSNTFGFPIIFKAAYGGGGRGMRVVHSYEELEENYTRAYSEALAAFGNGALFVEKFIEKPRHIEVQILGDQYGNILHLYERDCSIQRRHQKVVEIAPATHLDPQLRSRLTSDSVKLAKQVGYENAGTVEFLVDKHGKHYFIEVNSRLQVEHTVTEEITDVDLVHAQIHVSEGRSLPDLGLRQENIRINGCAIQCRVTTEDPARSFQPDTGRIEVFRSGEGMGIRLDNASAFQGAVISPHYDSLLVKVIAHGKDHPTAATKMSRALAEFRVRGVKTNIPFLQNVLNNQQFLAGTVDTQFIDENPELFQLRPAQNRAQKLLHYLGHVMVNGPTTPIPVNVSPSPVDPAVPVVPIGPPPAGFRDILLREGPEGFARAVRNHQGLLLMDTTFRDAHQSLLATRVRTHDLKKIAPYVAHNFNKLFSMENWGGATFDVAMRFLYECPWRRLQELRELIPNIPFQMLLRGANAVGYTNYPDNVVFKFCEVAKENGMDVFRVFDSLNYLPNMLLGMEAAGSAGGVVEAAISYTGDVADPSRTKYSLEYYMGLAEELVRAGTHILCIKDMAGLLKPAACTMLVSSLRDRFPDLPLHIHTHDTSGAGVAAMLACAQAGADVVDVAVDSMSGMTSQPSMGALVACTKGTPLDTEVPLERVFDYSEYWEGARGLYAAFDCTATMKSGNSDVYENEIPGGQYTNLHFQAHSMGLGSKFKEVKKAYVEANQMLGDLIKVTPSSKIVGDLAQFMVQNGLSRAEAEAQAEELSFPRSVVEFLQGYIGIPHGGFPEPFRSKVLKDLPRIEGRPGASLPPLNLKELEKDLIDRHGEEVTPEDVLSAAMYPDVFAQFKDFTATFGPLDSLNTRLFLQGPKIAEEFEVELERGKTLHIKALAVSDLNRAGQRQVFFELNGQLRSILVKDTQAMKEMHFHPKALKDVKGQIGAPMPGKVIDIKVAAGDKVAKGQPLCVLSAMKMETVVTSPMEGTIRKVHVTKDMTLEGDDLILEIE
UniProt Q3TDN2: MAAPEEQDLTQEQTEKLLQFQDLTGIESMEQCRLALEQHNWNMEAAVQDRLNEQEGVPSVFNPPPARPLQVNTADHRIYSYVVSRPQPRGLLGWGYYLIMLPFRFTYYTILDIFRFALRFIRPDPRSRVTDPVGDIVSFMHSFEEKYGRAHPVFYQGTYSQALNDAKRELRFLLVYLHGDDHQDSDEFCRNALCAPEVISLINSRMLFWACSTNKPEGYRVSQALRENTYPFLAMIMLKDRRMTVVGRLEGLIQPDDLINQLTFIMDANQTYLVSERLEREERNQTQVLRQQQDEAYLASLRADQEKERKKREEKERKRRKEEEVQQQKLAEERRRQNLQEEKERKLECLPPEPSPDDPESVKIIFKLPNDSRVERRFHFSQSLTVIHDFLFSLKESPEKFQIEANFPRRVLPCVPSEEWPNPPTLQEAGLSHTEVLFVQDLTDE
UniProt Q3TFK5: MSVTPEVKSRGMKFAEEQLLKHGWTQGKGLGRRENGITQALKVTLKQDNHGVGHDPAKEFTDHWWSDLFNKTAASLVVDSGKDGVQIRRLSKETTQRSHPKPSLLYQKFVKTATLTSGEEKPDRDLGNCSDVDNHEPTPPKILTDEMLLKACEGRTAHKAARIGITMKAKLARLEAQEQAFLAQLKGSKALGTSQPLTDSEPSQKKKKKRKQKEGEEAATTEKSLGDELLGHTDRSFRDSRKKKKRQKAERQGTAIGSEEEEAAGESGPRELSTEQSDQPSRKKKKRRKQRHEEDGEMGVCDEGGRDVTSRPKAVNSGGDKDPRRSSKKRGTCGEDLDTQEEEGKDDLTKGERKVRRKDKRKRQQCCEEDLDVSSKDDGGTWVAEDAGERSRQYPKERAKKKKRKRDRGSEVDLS

Compound: CN[C@@H]1C[C@H]2O[C@@](C)([C@@H]1OC)n1c3ccccc3c3c4c(c5c6ccccc6n2c5c31)C(=O)NC4 [staurosporine]
Assay: log2 fold change of tryptic peptide abundance, ligand vs vehicle (limited proteolysis) (log2 ratio); higher = more trypsin-susceptible (destabilized)
Settings: ligand concentration: 20 uM; sample: mouse liver crude lysate; replicate design: treated separately

Row | Target | log2 fold change
1 | UniProt Q3TGF2 (peptide sequence: LEQLELEKQK, peptide start residue: 91) | 0.197
2 | UniProt Q02780 (peptide sequence: RSLPSTSSTSSTK, peptide start residue: 287) | 0.756
3 | UniProt Q3TCV3 (peptide sequence: RSTMYVR, peptide start residue: 568) | -0.0862
4 | UniProt Q14CH7 (peptide sequence: QTLGPTTEQR, peptide start residue: 639) | 0.185
5 | UniProt Q06138 (peptide sequence: LMMNLLR, peptide start residue: 257) | 0.11
6 | UniProt Q11011 (peptide sequence: LGWDPKPGEGHLDALLR, peptide start residue: 691) | -0.254
7 | UniProt Q02819 (peptide sequence: VYDPKNEEDDMR, peptide start residue: 275) | -0.61
8 | UniProt Q3TL26 (peptide sequence: TFIPHLEPLQR, peptide start residue: 127) | 0.73
9 | UniProt Q05920 (peptide sequence: NHQGLLLMDTTFRDAHQSLLATR, peptide start residue: 559) | 0.308
10 | UniProt Q3TDN2 (peptide sequence: FQIEANFPR, peptide start residue: 401) | 0.171
11 | UniProt Q3TFK5 (peptide sequence: HEEDGEMGVCDEGGRDVTSRPK, peptide start residue: 292) | -0.408

2 entries drawn at random from those above, as already listed:
Row | Target | log2 fold change
7 | UniProt Q02819 (peptide sequence: VYDPKNEEDDMR, peptide start residue: 275) | -0.61
8 | UniProt Q3TL26 (peptide sequence: TFIPHLEPLQR, peptide start residue: 127) | 0.73
